Laboratory results: the supplement of paper PMC6411743
± gives the standard deviation of the averaged measurements. This is a selection; strong and weak results do not stand in their true shares.

Legend:
Assay in all cases: NP40-soluble protein abundance relative to vehicle (solubility fold change) (ratio); higher = more soluble protein in presence of AMP-PNP
[1] = target: T1, CDS2 (UniProt O95674)
T1 sequence (whole entry): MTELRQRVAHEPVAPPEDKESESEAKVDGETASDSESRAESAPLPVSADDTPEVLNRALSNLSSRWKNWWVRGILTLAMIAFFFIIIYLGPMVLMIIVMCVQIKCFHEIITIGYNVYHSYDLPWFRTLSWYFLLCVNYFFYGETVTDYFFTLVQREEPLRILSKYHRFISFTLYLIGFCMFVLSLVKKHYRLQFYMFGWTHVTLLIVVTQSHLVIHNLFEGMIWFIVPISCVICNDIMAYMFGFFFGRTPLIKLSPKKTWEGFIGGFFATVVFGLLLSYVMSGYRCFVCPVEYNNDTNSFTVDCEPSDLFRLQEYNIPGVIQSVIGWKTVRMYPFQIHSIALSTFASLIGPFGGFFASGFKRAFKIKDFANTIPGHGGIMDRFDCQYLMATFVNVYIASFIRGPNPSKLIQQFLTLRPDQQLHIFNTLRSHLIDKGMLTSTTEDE
Outline: (§1)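 Across three independent experiments, values are fold changes against the detergent-processed vehicle for each replicate, based on vsn-normalised intensities. The samples were Jurkat crude lysate treated with eight concentrations (0.1 to 10 mM) for 10 min at room temperature and then 3 min at 37 °C. Lysate was solubilised with 0.8% NP40 and benzonase, ultracentrifuged, and the supernatant analysed by TMT-labelled LC-MS/MS.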

[2] = target: T2, DOK2 (UniProt O60496)
T2 sequence (whole entry): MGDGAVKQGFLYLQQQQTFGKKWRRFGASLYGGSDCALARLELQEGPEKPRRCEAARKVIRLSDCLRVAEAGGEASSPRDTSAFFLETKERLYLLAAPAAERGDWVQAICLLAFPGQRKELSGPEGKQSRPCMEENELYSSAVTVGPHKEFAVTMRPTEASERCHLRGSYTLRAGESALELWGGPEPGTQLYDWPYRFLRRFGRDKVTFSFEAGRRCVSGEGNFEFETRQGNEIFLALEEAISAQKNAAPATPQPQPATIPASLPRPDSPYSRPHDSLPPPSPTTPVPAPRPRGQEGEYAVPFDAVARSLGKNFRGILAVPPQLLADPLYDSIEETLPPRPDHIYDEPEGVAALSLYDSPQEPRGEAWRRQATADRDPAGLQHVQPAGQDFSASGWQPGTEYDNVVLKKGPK
Outline: as §1

[3] = target: T3, LCMT2 (UniProt O60294)
T3 sequence (whole entry): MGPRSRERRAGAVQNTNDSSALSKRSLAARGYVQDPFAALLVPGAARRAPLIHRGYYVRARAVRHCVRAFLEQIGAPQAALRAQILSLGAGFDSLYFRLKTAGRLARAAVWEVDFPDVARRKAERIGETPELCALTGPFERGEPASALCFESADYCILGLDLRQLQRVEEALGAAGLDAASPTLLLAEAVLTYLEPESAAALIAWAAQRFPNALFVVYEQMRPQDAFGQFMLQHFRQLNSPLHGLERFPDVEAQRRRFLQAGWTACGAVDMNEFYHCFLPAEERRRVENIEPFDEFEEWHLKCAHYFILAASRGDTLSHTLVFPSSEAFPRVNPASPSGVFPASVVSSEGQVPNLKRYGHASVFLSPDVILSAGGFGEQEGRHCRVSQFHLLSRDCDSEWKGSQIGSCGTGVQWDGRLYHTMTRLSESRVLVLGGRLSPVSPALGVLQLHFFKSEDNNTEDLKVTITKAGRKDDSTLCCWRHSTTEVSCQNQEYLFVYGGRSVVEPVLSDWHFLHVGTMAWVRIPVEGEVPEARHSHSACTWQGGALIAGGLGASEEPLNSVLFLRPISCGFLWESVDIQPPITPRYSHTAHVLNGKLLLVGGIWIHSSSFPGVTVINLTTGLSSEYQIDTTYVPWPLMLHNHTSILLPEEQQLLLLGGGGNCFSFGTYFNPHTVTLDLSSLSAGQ
Outline: as §1

[4] = target: T4, MFN2 (UniProt O95140)
T4 sequence (whole entry): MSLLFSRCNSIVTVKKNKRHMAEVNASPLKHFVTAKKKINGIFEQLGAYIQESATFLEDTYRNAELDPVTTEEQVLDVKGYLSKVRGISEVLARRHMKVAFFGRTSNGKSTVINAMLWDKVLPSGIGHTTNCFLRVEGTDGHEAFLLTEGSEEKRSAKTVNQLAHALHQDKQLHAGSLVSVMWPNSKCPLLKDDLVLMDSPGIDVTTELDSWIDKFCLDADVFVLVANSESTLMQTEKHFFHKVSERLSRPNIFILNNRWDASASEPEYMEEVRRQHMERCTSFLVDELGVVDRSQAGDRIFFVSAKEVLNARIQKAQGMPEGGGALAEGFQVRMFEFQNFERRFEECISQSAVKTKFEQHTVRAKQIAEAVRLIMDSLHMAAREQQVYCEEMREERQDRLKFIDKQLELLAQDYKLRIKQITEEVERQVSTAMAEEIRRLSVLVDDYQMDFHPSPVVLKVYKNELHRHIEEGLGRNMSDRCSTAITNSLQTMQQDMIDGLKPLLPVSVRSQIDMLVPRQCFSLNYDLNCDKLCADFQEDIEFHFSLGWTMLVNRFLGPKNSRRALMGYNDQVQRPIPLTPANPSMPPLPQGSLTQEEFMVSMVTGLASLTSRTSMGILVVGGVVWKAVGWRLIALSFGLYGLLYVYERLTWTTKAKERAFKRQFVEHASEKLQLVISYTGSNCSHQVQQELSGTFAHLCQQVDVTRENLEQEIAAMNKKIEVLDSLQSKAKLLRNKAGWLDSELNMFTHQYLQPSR
Outline: as §1

[5] = target: T5, PGLS (UniProt O95336)
T5 sequence (whole entry): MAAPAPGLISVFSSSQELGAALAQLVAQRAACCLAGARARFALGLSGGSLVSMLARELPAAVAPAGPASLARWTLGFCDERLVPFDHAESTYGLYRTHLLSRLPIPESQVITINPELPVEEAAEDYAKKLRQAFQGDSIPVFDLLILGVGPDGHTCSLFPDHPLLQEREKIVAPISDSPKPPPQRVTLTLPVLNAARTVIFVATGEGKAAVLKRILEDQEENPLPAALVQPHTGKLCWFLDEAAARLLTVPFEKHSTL
Outline: as §1

Nc1ncnc2c1ncn2[C@@H]1O[C@H](COP(=O)(O)OP(=O)(O)NP(=O)(O)O)[C@@H](O)[C@H]1O [adenylyl imidodiphosphate]
NP40-soluble protein abundance ([1]; concentration: 1mM): 1.015 ± 0.0065 | NP40-soluble protein abundance ([1]; concentration: 2mM): 1.02 ± 0.034 | NP40-soluble protein abundance ([1]; concentration: 4mM): 0.993 ± 0.055 | NP40-soluble protein abundance ([1]; concentration: 6mM): 0.988 ± 0.031 | NP40-soluble protein abundance ([1]; concentration: 8mM): 0.98 ± 0.04 | NP40-soluble protein abundance ([1]; concentration: 10mM): 0.995 ± 0.052 | NP40-soluble protein abundance ([2]; concentration: 1mM): 1.01 ± 0.048 | NP40-soluble protein abundance ([2]; concentration: 2mM): 0.994 ± 0.041 | NP40-soluble protein abundance ([2]; concentration: 4mM): 1.01 ± 0.03 | NP40-soluble protein abundance ([2]; concentration: 6mM): 1.02 ± 0.02 | NP40-soluble protein abundance ([2]; concentration: 8mM): 0.9749 ± 0.00029 | NP40-soluble protein abundance ([2]; concentration: 10mM): 1 ± 0.0035 | NP40-soluble protein abundance ([3]; concentration: 1mM): 0.973 ± 0.011 | NP40-soluble protein abundance ([3]; concentration: 2mM): 0.955 ± 0.023 | NP40-soluble protein abundance ([3]; concentration: 4mM): 0.985 ± 0.023 | NP40-soluble protein abundance ([3]; concentration: 6mM): 0.987 ± 0.028 | NP40-soluble protein abundance ([3]; concentration: 8mM): 0.9927 ± 0.006 | NP40-soluble protein abundance ([3]; concentration: 10mM): 0.9858 ± 0.0033 | NP40-soluble protein abundance ([4]; concentration: 1mM): 1.01 ± 0.064 | NP40-soluble protein abundance ([4]; concentration: 2mM): 0.956 ± 0.032 | NP40-soluble protein abundance ([4]; concentration: 4mM): 1.01 ± 0.074 | NP40-soluble protein abundance ([4]; concentration: 6mM): 0.965 ± 0.037 | NP40-soluble protein abundance ([4]; concentration: 8mM): 0.986 ± 0.049 | NP40-soluble protein abundance ([4]; concentration: 10mM): 0.989 ± 0.024 | NP40-soluble protein abundance ([5]; concentration: 1mM): 0.972 ± 0.046 | NP40-soluble protein abundance ([5]; concentration: 2mM): 0.962 ± 0.025 | NP40-soluble protein abundance ([5]; concentration: 4mM): 0.987 ± 0.045
